# Measurements published in the supplement of paper PMC8728848.
# This is one part of the list.
# B1: BIp1-His (Cryptococcus neoformans) (protein)
# chain: MFTKIFVALFAATAVLSAPVESAEKRITHTGRATFYSPSVGIGACGWQNTDEELVVALNAPQYALNADHNCGQSVRITNEQNGNQEIAKVVDLCPGCNDGDLDMSPALFGALNNNDFDQGVFPISWNFLPRDDTSSSN
# Experiments:
# Experiment in all cases: glycan array binding signal (z-score within array); higher = stronger binding
# Details in all cases: glycan notation: IUPAC condensed, linker removed
# [1] = target: Gal(b1-4)GlcNAc(b1-2)[Gal(b1-4)GlcNAc(b1-6)]Man(a1-6)[Gal(b1-4)GlcNAc(b1-2)Man(a1-3)]Man(b1-4)GlcNAc(b1-4)[Fuc(a1-6)]GlcNAc
# Outline: (§1)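 From the Consortium for Functional Glycomics database, 3228 arrays were curated, keeping only those whose protein sequence was available. Binding is given as a within-array Z-score averaged across arrays sharing a protein sequence and across linkers. Negative Z-scores can be read as non-binding.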
# [2] = target: Gal(b1-4)GlcNAc(b1-2)[Gal(b1-4)GlcNAc(b1-6)]Man(a1-6)[GlcNAc(b1-4)][Gal(b1-4)GlcNAc(b1-2)Man(a1-3)]Man(b1-4)GlcNAc(b1-4)GlcNAc
# Outline: as §1
# [3] = target: Gal(b1-4)GlcNAc(b1-2)[Gal(b1-4)GlcNAc(b1-6)]Man(a1-6)[GlcNAc(b1-4)][Gal(b1-4)GlcNAc(b1-2)[Gal(b1-4)GlcNAc(b1-4)]Man(a1-3)]Man(b1-4)GlcNAc(b1-4)[Fuc(a1-6)]GlcNAc
# Outline: as §1
# [4] = target: Gal(b1-4)GlcNAc(b1-3)Gal(b1-3)GalNAc
# Outline: as §1
# [5] = target: Gal(b1-4)GlcNAc(b1-3)Gal(b1-3)GlcNAc
# Outline: as §1
# [6] = target: Gal(b1-4)GlcNAc(b1-3)Gal(b1-4)Glc
# Outline: as §1
# [7] = target: Gal(b1-4)GlcNAc(b1-3)Gal(b1-4)GlcNAc
# Outline: as §1
# [8] = target: Gal(b1-4)GlcNAc(b1-3)Gal(b1-4)GlcNAc(b1-2)Man(a1-3)[Gal(b1-4)GlcNAc(b1-3)Gal(b1-4)GlcNAc(b1-2)Man(a1-6)]Man(b1-4)GlcNAc(b1-4)GlcNAc
# Outline: as §1
# [9] = target: Gal(b1-4)GlcNAc(b1-3)Gal(b1-4)GlcNAc(b1-2)Man(a1-3)[Gal(b1-4)GlcNAc(b1-3)Gal(b1-4)GlcNAc(b1-2)Man(a1-6)]Man(b1-4)GlcNAc(b1-4)[Fuc(a1-6)]GlcNAc
# Outline: as §1
# [10] = target: Gal(b1-4)GlcNAc(b1-3)Gal(b1-4)GlcNAc(b1-2)[Gal(b1-4)GlcNAc(b1-3)Gal(b1-4)GlcNAc(b1-6)]Man(a1-6)[Gal(b1-4)GlcNAc(b1-3)Gal(b1-4)GlcNAc(b1-2)Man(a1-3)]Man(b1-4)GlcNAc(b1-4)GlcNAc
# Outline: as §1
# [11] = target: Gal(b1-4)GlcNAc(b1-3)Gal(b1-4)GlcNAc(b1-2)[Gal(b1-4)GlcNAc(b1-3)Gal(b1-4)GlcNAc(b1-6)]Man(a1-6)[Gal(b1-4)GlcNAc(b1-3)Gal(b1-4)GlcNAc(b1-2)Man(a1-3)]Man(b1-4)GlcNAc(b1-4)[Fuc(a1-6)]GlcNAc
# Outline: as §1
# [12] = target: Gal(b1-4)GlcNAc(b1-3)Gal(b1-4)GlcNAc(b1-3)Gal(b1-4)GlcNAc
# Outline: as §1
# [13] = target: Gal(b1-4)GlcNAc(b1-3)Gal(b1-4)GlcNAc(b1-3)Gal(b1-4)GlcNAc(b1-2)Man(a1-3)[Gal(b1-4)GlcNAc(b1-3)Gal(b1-4)GlcNAc(b1-3)Gal(b1-4)GlcNAc(b1-2)Man(a1-6)]Man(b1-4)GlcNAc(b1-4)GlcNAc
# Outline: as §1
# [14] = target: Gal(b1-4)GlcNAc(b1-3)Gal(b1-4)GlcNAc(b1-3)Gal(b1-4)GlcNAc(b1-2)Man(a1-3)[Gal(b1-4)GlcNAc(b1-3)Gal(b1-4)GlcNAc(b1-3)Gal(b1-4)GlcNAc(b1-2)Man(a1-6)]Man(b1-4)GlcNAc(b1-4)[Fuc(a1-6)]GlcNAc
# Outline: as §1
# [15] = target: Gal(b1-4)GlcNAc(b1-3)Gal(b1-4)GlcNAc(b1-3)Gal(b1-4)GlcNAc(b1-2)[Gal(b1-4)GlcNAc(b1-3)Gal(b1-4)GlcNAc(b1-3)Gal(b1-4)GlcNAc(b1-6)]Man(a1-6)[Gal(b1-4)GlcNAc(b1-3)Gal(b1-4)GlcNAc(b1-3)Gal(b1-4)GlcNAc(b1-2)Man(a1-3)]Man(b1-4)GlcNAc(b1-4)[Fuc(a1-6)]GlcNAc
# Outline: as §1
# [16] = target: Gal(b1-4)GlcNAc(b1-3)Gal(b1-4)GlcNAc(b1-3)Gal(b1-4)GlcNAc(b1-3)Gal(b1-4)GlcNAc(b1-2)Man(a1-3)[Gal(b1-4)GlcNAc(b1-3)Gal(b1-4)GlcNAc(b1-3)Gal(b1-4)GlcNAc(b1-3)Gal(b1-4)GlcNAc(b1-2)Man(a1-6)]Man(b1-4)GlcNAc(b1-4)GlcNAc
# Outline: as §1
# [17] = target: Gal(b1-4)GlcNAc(b1-3)Gal(b1-4)GlcNAc(b1-3)Gal(b1-4)GlcNAc(b1-3)Gal(b1-4)GlcNAc(b1-2)Man(a1-3)[Gal(b1-4)GlcNAc(b1-3)Gal(b1-4)GlcNAc(b1-3)Gal(b1-4)GlcNAc(b1-3)Gal(b1-4)GlcNAc(b1-2)Man(a1-6)]Man(b1-4)GlcNAc(b1-4)[Fuc(a1-6)]GlcNAc
# Outline: as §1
# [18] = target: Gal(b1-4)GlcNAc(b1-3)Gal(b1-4)GlcNAc(b1-3)Gal(b1-4)GlcNAc(b1-3)Gal(b1-4)GlcNAc(b1-2)[Gal(b1-4)GlcNAc(b1-3)Gal(b1-4)GlcNAc(b1-3)Gal(b1-4)GlcNAc(b1-3)Gal(b1-4)GlcNAc(b1-6)]Man(a1-6)[Gal(b1-4)GlcNAc(b1-3)Gal(b1-4)GlcNAc(b1-3)Gal(b1-4)GlcNAc(b1-3)Gal(b1-4)GlcNAc(b1-2)Man(a1-3)]Man(b1-4)GlcNAc(b1-4)[Fuc(a1-6)]GlcNAc
# Outline: as §1
# [19] = target: Gal(b1-4)GlcNAc(b1-3)Gal(b1-4)GlcNAc(b1-3)Gal(b1-4)GlcNAc(b1-3)Gal(b1-4)GlcNAc(b1-3)Gal(b1-4)GlcNAc(b1-2)Man(a1-3)[Gal(b1-4)GlcNAc(b1-3)Gal(b1-4)GlcNAc(b1-3)Gal(b1-4)GlcNAc(b1-3)Gal(b1-4)GlcNAc(b1-3)Gal(b1-4)GlcNAc(b1-2)Man(a1-6)]Man(b1-4)GlcNAc(b1-4)GlcNAc
# Outline: as §1
# [20] = target: Gal(b1-4)GlcNAc(b1-3)Gal(b1-4)GlcNAc(b1-3)Gal(b1-4)GlcNAc(b1-3)Gal(b1-4)GlcNAc(b1-3)Gal(b1-4)GlcNAc(b1-2)Man(a1-3)[Gal(b1-4)GlcNAc(b1-3)Gal(b1-4)GlcNAc(b1-3)Gal(b1-4)GlcNAc(b1-3)Gal(b1-4)GlcNAc(b1-3)Gal(b1-4)GlcNAc(b1-2)Man(a1-6)]Man(b1-4)GlcNAc(b1-4)[Fuc(a1-6)]GlcNAc
# Outline: as §1
# [21] = target: Gal(b1-4)GlcNAc(b1-3)Gal(b1-4)GlcNAc(b1-3)Gal(b1-4)GlcNAc(b1-3)Gal(b1-4)GlcNAc(b1-3)Gal(b1-4)GlcNAc(b1-2)[Gal(b1-4)GlcNAc(b1-3)Gal(b1-4)GlcNAc(b1-3)Gal(b1-4)GlcNAc(b1-3)Gal(b1-4)GlcNAc(b1-3)Gal(b1-4)GlcNAc(b1-6)]Man(a1-6)[Gal(b1-4)GlcNAc(b1-3)Gal(b1-4)GlcNAc(b1-3)Gal(b1-4)GlcNAc(b1-3)Gal(b1-4)GlcNAc(b1-3)Gal(b1-4)GlcNAc(b1-2)Man(a1-3)]Man(b1-4)GlcNAc(b1-4)[Fuc(a1-6)]GlcNAc
# Outline: as §1
# [22] = target: Gal(b1-4)GlcNAc(b1-3)Gal(b1-4)GlcNAc(b1-3)Gal(b1-4)GlcNAc(b1-3)Gal(b1-4)GlcNAc(b1-3)Gal(b1-4)GlcNAc(b1-3)Gal(b1-4)GlcNAc(b1-2)Man(a1-3)[Gal(b1-4)GlcNAc(b1-3)Gal(b1-4)GlcNAc(b1-3)Gal(b1-4)GlcNAc(b1-3)Gal(b1-4)GlcNAc(b1-3)Gal(b1-4)GlcNAc(b1-3)Gal(b1-4)GlcNAc(b1-2)Man(a1-6)]Man(b1-4)GlcNAc(b1-4)GlcNAc
# Outline: as §1
# [23] = target: Gal(b1-4)GlcNAc(b1-3)Gal(b1-4)GlcNAc(b1-3)GalNAc
# Outline: as §1
binder,measurement,setting,value
B1,glycan array binding signal (z-score),[1],0.608
same,glycan array binding signal (z-score),[2],-0.436
same,glycan array binding signal (z-score),[3],-0.02
same,glycan array binding signal (z-score),[4],-0.667
same,glycan array binding signal (z-score),[5],-0.008
same,glycan array binding signal (z-score),[6],-0.068
same,glycan array binding signal (z-score),[7],-0.127
same,glycan array binding signal (z-score),[8],1.7
same,glycan array binding signal (z-score),[9],2.12
same,glycan array binding signal (z-score),[10],1.75
same,glycan array binding signal (z-score),[11],0.623
same,glycan array binding signal (z-score),[12],-0.308
same,glycan array binding signal (z-score),[13],1.97
same,glycan array binding signal (z-score),[14],1.55
same,glycan array binding signal (z-score),[15],3.26
same,glycan array binding signal (z-score),[16],0.684
same,glycan array binding signal (z-score),[17],2.08
same,glycan array binding signal (z-score),[18],0.595
same,glycan array binding signal (z-score),[19],0.681
same,glycan array binding signal (z-score),[20],0.357
same,glycan array binding signal (z-score),[21],1.15
same,glycan array binding signal (z-score),[22],0.308
same,glycan array binding signal (z-score),[23],0.437

# Looked up one by one from above (two):
binder,measurement,setting,value
B1,glycan array binding signal (z-score),[20],0.357
same,glycan array binding signal (z-score),[8],1.7
